Most values lie at the floor of the assay. Slopes are relative: functional sequences can read slightly below zero.
tested on: Saccharomyces cerevisiae PS128 hsf1 delta, HSF1(1-493) fusion; experiment: growth estimate (transactivation domain function in HSF1 fusion, heat-shock survival) (a.u. (slope of normalised read count over time)); higher = stronger growth at 37°C, i.e. more transactivation activity; settings: library: random library

| Substance | growth estimate |
| --- | --- |
| SFSQQGAKTTCCGRSIAFAD | < -0.25 |
| SFT | < -0.25 |
| SFTPGD | < -0.25 |
| SFVVCRNRGTETL | < -0.25 |
| SFVVVKTPAKKEVTSARLLW | < -0.25 |
| SFWLGGLSIGCMSVFKFPG | < -0.25 |
| SGAAYHDVLIYYKMNLGLAA | < -0.25 |
| SGARHPVGNLFSRAKGQ | < -0.25 |
| SGATGRYGVRSHSSIIFEVD | < -0.25 |
| SGCKAPRLESPAIFCFGEIV | < -0.25 |
| SGCKTRGGPGTLLRLEGFRQ | < -0.25 |
| SGCSCLLAHPLFRA | < -0.25 |
| SGCTFAGTDKSPKRALRG | < -0.25 |
| SGCVYLAGFPYSG | -0.246 |
| SGDIAT | < -0.25 |
| SGDLQS | < -0.25 |
| SGDRPPPRSDCHQYGSECGA | < -0.25 |
| SGDVT | < -0.25 |
| SGEGVY | < -0.25 |
| SGEMSWQIADYGIRGHQGSV | < -0.25 |
| SGFLTCWERYLI | < -0.25 |
| SGFPCLTYHNCLAQQSPSRS | < -0.25 |
| SGFSKV | < -0.25 |
| SGGCLASEGESWWASDGFTS | < -0.25 |
| SGGDGE | < -0.25 |

| Substance | growth estimate |
| --- | --- |
| SGGFRS | < -0.25 |
| SGGGVVEYRRLTSRVSRFTD | < -0.25 |
| SGGLLAGNCRWA | < -0.25 |
| SGGNANDSALCSPLCRLKHA | < -0.25 |
| SGGRSATDRPQRFLRIFGFG | < -0.25 |
| SGGTSPFLSLVCSFRAKCQP | < -0.25 |
| SGGYDAAYPLYPAACLFRLP | < -0.25 |
| SGHPKAPGWAW | < -0.25 |
| SGHSFQ | -0.228 |
| SGHWSCRVTDDVRRLGAPSN | < -0.25 |
| SGI | < -0.25 |
| SGIERRCL | -0.246 |
| SGIGYYPRGAALCNHLLVSP | < -0.25 |
| SGIHEIPVRARNSLHRMQYS | < -0.25 |
| SGIISIRL | < -0.25 |
| SGIYLGRHFSYFQA | < -0.25 |
| SGKERNCYRVYVGSINRAGI | < -0.25 |
| SGKG | < -0.25 |
| SGKIPGGWQCGSGRTRHEDN | < -0.25 |
| SGKLWI | < -0.25 |
| SGLHSSRTLP | < -0.25 |
| SGLKDMLLEVVHV | < -0.25 |
| SGLPPSILFWVVLDLERTSP | < -0.25 |
| SGLRCFCVP | < -0.25 |
| SGLRKGCVPVSN | < -0.25 |

| Substance | growth estimate |
| --- | --- |
| SGLTRDEVRLYYALTAVSLT | < -0.25 |
| SGLVDLARQC | < -0.25 |
| SGMSAEVWAKGRG | < -0.25 |
| SGNGSRSERALWMFQ | < -0.25 |
| SGNLSSDCGRARKVGRAGKA | < -0.25 |
| SGNRHTCQAALNRIVVWPLF | < -0.25 |
| SGPLGLESALHDYNALLVSA | < -0.25 |
| SGQPHDAIAAGYISELE | < -0.25 |
| SGQS | < -0.25 |
| SGR | < -0.25 |
| SGRGLTNAGM | < -0.25 |
| SGRHQHRIWT | < -0.25 |
| SGRKTVTR | < -0.25 |
| SGRPFGKRCALPDYSGQVIG | < -0.25 |
| SGRPGVAPRVGCTTKSRLWH | < -0.25 |
| SGRQGAQPGVCVERCLPACD | < -0.25 |
| SGRRQRGLSVPSTGRHPRRR | < -0.25 |
| SGRS | < -0.25 |
| SGSAGLESLH | < -0.25 |
| SGSKF | < -0.25 |
| SGSQTTCVEGTTLSDSSATP | < -0.25 |
| SGSRSPRLRFIMVYK | < -0.25 |
| SGSS | < -0.25 |
| SGSSVMDSP | < -0.25 |
| SGTGCHAARDP | < -0.25 |

| Substance | growth estimate |
| --- | --- |
| SGTICLTGDLRIVPAC | < -0.25 |
| SGTISSLRQLLVGRTTRGIR | < -0.25 |
| SGTSSLGSGVRTPHTCNGPG | -0.246 |
| SGVKMEVVTVGT | < -0.25 |
| SGVLDISCAATPVQAQ | < -0.25 |
| SGVPLPWFLSLLAECRAADV | < -0.25 |
| SGVQASVRPHTPHNYPRVNS | < -0.25 |
| SGVQYHFMRLKAWYSCLTSA | < -0.25 |
| SGVRWVVRS | < -0.25 |
| SGVSLFNH | < -0.25 |
| SGVV | < -0.25 |
| SGWS | < -0.25 |
| SGWSSSAHRRRNCFLHTGGD | < -0.25 |
| SGYAIGLMTSRNISKFSQCA | < -0.25 |
| SGYPPGRTRLVRSKPYWKLA | < -0.25 |
| SHFDA | -0.243 |
| SHGGTSSWYVQAFNRCR | < -0.25 |
| SHGVMRPNSTLNYVILCRLA | < -0.25 |
| SHGWVCCGIYKWGCHGIVG | < -0.25 |
| SHIARRPVAKSKIPGSETSE | < -0.25 |
| SHICILEPGHLSTCFPWRIA | < -0.25 |
| SHICMGRAARQT | < -0.25 |
| SHIRTKGTNGGSSRSVFVYV | < -0.25 |
| SHKHRPGSRKTPRALQQQTY | < -0.25 |
| SHLSSTRIVDGHLVHYR | < -0.25 |

| Substance | growth estimate |
| --- | --- |
| SHLVYSLQASD | < -0.25 |
| SHNTHRQILS | < -0.25 |
| SHPIGAQTRRMCRDNPG | < -0.25 |
| SHPRVEGCGLFSSWQ | < -0.25 |
| SHQCGRQRGGEMHDQIYSVP | < -0.25 |
| SHRITRGRPSAWVTRAKKNT | < -0.25 |
| SHRVLSPVKAFSGGNSSHP | < -0.25 |
| SHSKPSLSSILDPVAR | < -0.25 |
| SHTCKTRSHMLNSDKRVNRQ | < -0.25 |
| SHTTVWSRHGRRRWQ | < -0.25 |
| SHYRADFG | < -0.25 |
| SIAMQWVGTVSLVWEELGSS | < -0.25 |
| SIASATLKYGLNP | < -0.25 |
| SICGSLLPVFGGL | < -0.25 |
| SICQHQLAFH | < -0.25 |
| SICSSSDLRRPIR | < -0.25 |
| SICVEMAWRSGSASADRTFY | < -0.25 |
| SICVKPMDCGRPSQYYTVHR | < -0.25 |
| SIDKACSAIQPTLVAGGLSL | < -0.25 |
| SIEDIGSQGLSSDVGSGGTS | < -0.25 |
| SIEKEVERRGRRTLPLNP | < -0.25 |
| SIELMVVGSCDTSCRR | -0.246 |
| SIESLTCAT | < -0.25 |
| SIETNRLSRAFFRGTGKMLQ | < -0.25 |
| SIFVLRVNKYTRGHYHRVRC | < -0.25 |

Some of the entries so far, in CSV form.
Substance,growth estimate
SGIGYYPRGAALCNHLLVSP,< -0.25
SGIHEIPVRARNSLHRMQYS,< -0.25
SGIISIRL,< -0.25
SGIYLGRHFSYFQA,< -0.25

(listing goes on)

| Substance | growth estimate |
| --- | --- |
| SIGFRCGQNKSGIDNGNTLL | < -0.25 |
| SIGVDHLPGGIPDNSARRCE | < -0.25 |
| SIH | < -0.25 |
| SIHHHV | < -0.25 |
| SIIAISAHFWGYQALGGTRV | < -0.25 |
| SIIRLIQCIIRATGVKLVHT | < -0.25 |
| SIIRSSCVCCRQKKASLAGN | < -0.25 |
| SIITGHCRERADIQCHALEI | < -0.25 |
| SIKGNAEVNACMDLAQTSPR | < -0.253 |
| SIKLGAPE | < -0.25 |
| SILEVCFMGEYPSCMTLMRG | < -0.25 |
| SILRAQFAILGVTRPESMSA | < -0.25 |
| SILSAEGTNSQQLSSLKEQK | < -0.25 |
| SILTVGSHLI | < -0.25 |
| SIMPSSESQSGDTAATRRDT | < -0.25 |
| SIQGEFRMHAGDRVSNRKYQ | < -0.25 |
| SIQMPGLQLGALG | < -0.25 |
| SIRAGLGPKGSSRRTQCRYI | < -0.25 |
| SIRFIETGSECQPHGTRSAP | < -0.25 |
| SIRFSRVDSCAQ | < -0.25 |
| SIRRPTEMH | < -0.25 |
| SIRTGN | < -0.25 |
| SIRTS | < -0.25 |
| SISLGSDFDKYSLRGLLSLF | < -0.25 |
| SISLLSYSLLPSPSLESGPA | < -0.25 |

Quoted at random: 5 entries already listed.

| Substance | growth estimate |
| --- | --- |
| SIMPSSESQSGDTAATRRDT | < -0.25 |
| SIRFSRVDSCAQ | < -0.25 |
| SIIAISAHFWGYQALGGTRV | < -0.25 |
| SIIRLIQCIIRATGVKLVHT | < -0.25 |
| SISLLSYSLLPSPSLESGPA | < -0.25 |

Copied from the list.
For growth estimate, SIRAGLGPKGSSRRTQCRYI shows < -0.25
For growth estimate, SIMPSSESQSGDTAATRRDT shows < -0.25
For growth estimate, SIRTGN shows < -0.25

The list continues.

| Substance | growth estimate |
| --- | --- |
| SISRGFSAITLLNRRPARTR | < -0.25 |
| SITGSLDRCSPNDETGHGHI | -0.19 |
| SITKQEQFVQSPAVPGVATR | < -0.25 |
| SITRLCAPALWVLLC | < -0.25 |
| SITVRVVV | -0.239 |
| SIVPGHGGIKGPVGRGANSA | < -0.25 |
| SIWHKWTDLICAC | < -0.25 |
| SIY | < -0.25 |
| SIYFGQGRDRGCAWYIAQVS | < -0.25 |
| SKAVDIRIKGRLTYGGHM | < -0.25 |
| SKDRQKLWNANW | -0.231 |
| SKFCDVSMCRHWVMFA | < -0.25 |
| SKGPKANMRLRCPSRLEIVI | < -0.25 |
| SKGRAGTWCTLSVNPCALEP | < -0.25 |
| SKGRFQE | < -0.25 |
| SKHQTFDYPPVAARSLSLHS | < -0.25 |
| SKIRPHNPFQAPRKPLANWP | < -0.25 |
| SKKLSPSASFGGTRWNCRAL | < -0.25 |
| SKLAMVLP | -0.218 |
| SKLHESRSSEVARHES | -0.231 |
| SKLPRLFSSVGTMLGRVRTA | -0.236 |
| SKLQFVSSDDRL | < -0.25 |
| SKLTLRV | < -0.25 |
| SKNENPYESSVHPGFTPRRL | < -0.25 |
| SKRLLRPCYKGPESVEASET | < -0.25 |

| Substance | growth estimate |
| --- | --- |
| SKRLTLLDRHRALSR | < -0.25 |
| SKRQEKEQCPPVASAHSVRP | < -0.25 |
| SKRYR | < -0.25 |
| SKSGRRKPRGGGNPRSRLNA | < -0.25 |
| SKSTARNRTTLDCLGACRVP | < -0.25 |
| SKTR | < -0.25 |
| SKTRLQERSADGWPTTVLYR | < -0.25 |
| SKTSEVSGLLWCPATMTSIF | < -0.25 |
| SKTVPAEGLTIWAEPHVQPG | < -0.25 |
| SKTVVVPIARTLGRGMSHCH | < -0.25 |
| SKVFFLYRCYG | < -0.25 |
| SKVSHTTANVRVIARLSRRR | < -0.25 |
| SKYAARYDKPI | < -0.25 |
| SLAIILLS | < -0.25 |
| SLARSESAVA | < -0.25 |
| SLASDSDPL | < -0.25 |
| SLCAHWLCCHWQMVTCSSTE | < -0.25 |
| SLCGTVLN | < -0.25 |
| SLCWGHHRRSIS | < -0.25 |
| SLDDRYACNLYWEASRLAPR | < -0.25 |
| SLDW | < -0.25 |
| SLEPGEAPPIVAKHIGDGPT | < -0.25 |
